# Primary screen of a compound library

Amino acid sequences for entries named in this document (tags omitted).
UniProt E9BF75, entry or part of it: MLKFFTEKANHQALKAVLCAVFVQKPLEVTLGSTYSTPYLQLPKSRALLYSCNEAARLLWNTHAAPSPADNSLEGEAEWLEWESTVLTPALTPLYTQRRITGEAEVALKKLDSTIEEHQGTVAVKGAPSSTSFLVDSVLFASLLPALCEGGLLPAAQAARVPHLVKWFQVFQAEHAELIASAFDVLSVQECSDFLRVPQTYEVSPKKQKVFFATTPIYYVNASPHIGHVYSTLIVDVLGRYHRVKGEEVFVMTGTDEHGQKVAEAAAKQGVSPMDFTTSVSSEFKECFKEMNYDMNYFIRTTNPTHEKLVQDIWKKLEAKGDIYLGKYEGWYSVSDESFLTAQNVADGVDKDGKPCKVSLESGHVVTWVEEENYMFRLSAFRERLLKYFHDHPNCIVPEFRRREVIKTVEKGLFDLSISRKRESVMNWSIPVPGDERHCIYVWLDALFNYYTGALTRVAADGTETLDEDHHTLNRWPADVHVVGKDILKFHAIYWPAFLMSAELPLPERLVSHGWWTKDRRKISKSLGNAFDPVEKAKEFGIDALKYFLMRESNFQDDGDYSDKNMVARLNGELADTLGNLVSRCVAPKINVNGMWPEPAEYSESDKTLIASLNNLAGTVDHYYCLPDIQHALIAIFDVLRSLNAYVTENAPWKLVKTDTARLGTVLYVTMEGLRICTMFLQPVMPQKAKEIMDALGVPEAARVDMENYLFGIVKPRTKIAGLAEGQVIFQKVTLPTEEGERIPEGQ

Measurements from “University of Dundee, Small-Polar-MMV Screening Library” (2021), ChEMBL document CHEMBL3988442.

Results are percentages, as filed. The record does not define 0% and 100%; most values in the screen are far below 50% and negative numbers occur (in some assays of this library far below -100). This is an unselected part of the compounds tested. A dash means the value is not listed here; it may have been measured.

LdMetRS: 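Methionyl-tRNA synthetase (putative), Leishmania donovani (UniProt E9BF75). Primary screen of methionyl-tRNA synthetase; the read-out is not stated. The test concentration is not given. Values are per cent inhibition. Size under these conditions: about 68,000 compounds, about 24 of them at 50% or above in at least one test.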
Mtb heat-shock: 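Assay on Mycobacterium tuberculosis, filed only as a heat shock assay from Cornell; the read-out is not stated. The concentration is filed as 10 mM, unlikely as a test dose, so the dose is not known. Direction is inferred from retests: higher values go with stronger inhibition. Size under these conditions: about 69,000 compounds, about 930 of them at 50% or above in at least one test.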

structure	LdMetRS	Mtb heat-shock
Cc1nc(CN2CCN(C(=O)CCC(=O)c3ccccc3)CC2)no1	2.135	14.75
COc1ccc(CCN(C)C(=O)c2cc(C(C)=O)c[nH]2)cc1OC	8.101	-23.85
N#Cc1cccnc1NCc1cccnc1N1CCC(C(N)=O)CC1	10.04	-10.27
Cc1nc(CC(C)C)cc(C(=O)N2C[C@@H](N(C)C)[C@H](C(C)C)C2)n1	19.03	-166.2
CCOC(=O)[C@]12CCCN(Cc3nccs3)C[C@H]1CN(CCOC)C2	4.965	-
Cc1cccc(N2CCC3(CCN(C(=O)c4cccnc4)CC3)C2)n1.O=C(O)C(F)(F)F.O=C(O)C(F)(F)F	-	-27.86
Cc1noc(C)c1C1CCCN1C(=O)c1cn2ccsc2n1 (stereo unspecified)	8.06	-6.74
Cn1ccnc1-c1nc(N2CCCCC2)ncc1-c1ccccc1F	12.21	-0.09407
Cn1cnc2cc(CCC(=O)Nc3n[nH]c(C4CC4)n3)ccc21	13.04	6.32
CN1CC(NC(=O)Cc2csc(C(C)(C)C)n2)CCC1=O (stereo unspecified)	5.484	-17.31
[H][C@@]12C[C@H](C(=O)N3CCOCC3)[C@@]([H])(CN(S(=O)(=O)CCC)C1)O2	-	1.981
CN(C)c1cc(C2CCCN(C(=O)Cn3cc(Cl)cn3)C2)ccn1 (stereo unspecified)	15.48	0.6391
Cc1cc(N2CCC(NC(=O)CCc3ccco3)CC2)nc(C)n1	10.31	-21.65
Cc1csc([C@H]2C[C@@H]3CCN(Cc4cc(C)on4)C[C@H]3O2)n1	19.22	-
CCCc1nc(C)cc(N2CCNC(C(=O)NCc3cccnc3)C2)n1 (stereo unspecified)	4.982	-15.55
Cc1cc(CN2CC[C@H]3OCC[C@@]3(C(=O)NC(C)C)C2)no1	21.57	-
Cc1cc(C(F)(F)F)nc(CNc2nc(C)nc3c2cnn3C)n1	12.28	12.41
[H][C@@]12CCC(=O)N(CCc3c[nH]cn3)[C@]1([H])CCN(Cc1cccnc1)C2	-	-19.11
Nc1nc(C2CCN(C(=O)c3cnccn3)CC2)cs1	5.085	-31.55
CSCCC(O)C(=O)N1CCCN(Cc2cccnc2)CC1 (stereo unspecified)	7.904	19.88
c1ccc(-n2ccc(CN3CCCC(Cn4cncn4)C3)n2)cc1 (stereo unspecified)	28.37	19.57
c1cnn(CC2CCCN2Cc2ccc(-n3cccn3)cc2)c1 (stereo unspecified)	13.07	28.47
COCCn1ccc(=O)c(OCC(=O)Nc2cccc(Cl)c2)c1C	6.977	15.63
Cc1nc(COc2cccc(C#N)c2)no1	14.17	4.876
CS(=O)(=O)NCCCSCc1cccc2cccnc12	18.55	-6.384
CC(=O)Nc1nc(C(=O)NC(C)c2ccc(F)c(F)c2)cs1 (stereo unspecified)	9.966	24.84
CCN(CC(F)(F)F)C(=O)C1CCCN(Cc2cscn2)C1 (stereo unspecified)	1.394	31.64
CN(C)C(CNC(=O)NCc1ccco1)c1cccs1 (stereo unspecified)	9.574	27.06
CC(C)c1ocnc1C(=O)Nc1cccc(Cn2ccccc2=O)c1	7.619	22.54
[H][C@]12CC[C@]([H])(CN(C(=O)c3ccncc3)C1)N(C(=O)N1CCOCC1)C2	-	-7.732
O=C(NCCc1coc(-c2ccccc2)n1)NC1CC1	12.43	-30.58
CC(C)N(C(=O)CN(C)C1CCc2ccccc21)C(C)C (stereo unspecified)	20.77	-22.8
Cc1cc(CN2CCC(C3CCN(CC(C)C)CC3)C2)[nH]n1 (stereo unspecified)	2.558	3.211
NC(=O)C1CCCN1CCCc1ccc(Cl)cc1 (stereo unspecified)	9.946	-45.48
COc1ncccc1NC(=O)NC(C)(C)c1ncc(C)s1	-0.2762	-12.36
CC(=O)N1CC(=O)N(c2ccccc2)CC12CCN(Cc1ccoc1)C2.O=C(O)C(F)(F)F (stereo unspecified)	-	-0.426
CNc1nc(C)c(C(=O)N2CCCCC2CCN2CCOCC2)s1 (stereo unspecified)	16.85	4.128
O=C(O)Cn1ccc(=O)c2ccccc21	14.52	4.494
O=C(CC1CC1)N1CCCn2nnc(CNc3ncccn3)c2C1	-0.5464	3.925
CN1CCCC1CCNC(=O)Nc1ccccc1 (stereo unspecified)	10.83	9.759
NC(=O)NC(=O)CNC1(c2ccc(Cl)cc2)CCC1	17.56	-10.94
COCCNc1ccc(-c2noc([C@@H]3CCCN3)n2)cn1	-9.89	-7.562
O=C(Nc1cnc2n1CCCC2)C1CCCN1C1CCNCC1 (stereo unspecified)	-1.437	-15.12
CCCN(CCC)c1ncc(S(=O)(=O)c2ccc(OC)cc2)c(N)n1	2.681	-24.62
COCC(=O)NCc1cc(=O)n2c(n1)CN(CC1CCOC1)CCC2 (stereo unspecified)	7.071	-
CC(=O)NCC(=O)N1CCC(c2cncc(Oc3cccnc3)n2)CC1	13.54	-3.918

3 of the entries, repeated:

| structure | LdMetRS | Mtb heat-shock |
|---|---|---|
| `CCCc1nc(C)cc(N2CCNC(C(=O)NCc3cccnc3)C2)n1` (stereo unspecified) | 4.982 | -15.55 |
| `Cc1noc(C)c1C1CCCN1C(=O)c1cn2ccsc2n1` (stereo unspecified) | 8.06 | -6.74 |
| `Cn1cnc2cc(CCC(=O)Nc3n[nH]c(C4CC4)n3)ccc21` | 13.04 | 6.32 |